In US20140287434A1:
No constants are given. Whether binding was seen depends on the method and setting. In cells and extracts the contact can be indirect. Some binding calls cover weakened binding; strength is not graded here. Where a sequence is shown, tags or fusion partners need not be part of it.

Amino acid sequences for entries named in this document (tags omitted). Residues count along the entry.
UniProt Q03526, residues 362-625: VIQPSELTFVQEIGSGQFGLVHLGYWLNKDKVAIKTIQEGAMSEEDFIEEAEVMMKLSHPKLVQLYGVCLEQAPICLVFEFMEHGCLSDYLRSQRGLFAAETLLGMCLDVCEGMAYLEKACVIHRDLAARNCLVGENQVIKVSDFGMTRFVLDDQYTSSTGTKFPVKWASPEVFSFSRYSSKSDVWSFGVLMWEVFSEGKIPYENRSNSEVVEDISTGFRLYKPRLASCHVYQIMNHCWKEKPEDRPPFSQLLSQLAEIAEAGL

Assays:
[1] = target: FLAG-tagged Itk KD expressed alone (without Lck) (mouse) (UniProt Q03526); test: GST pull-down on glutathione beads, anti-FLAG blot (FIG. 3g, lane 2)
[2] = target: FLAG-tagged Itk KD expressed alone (without Lck) (mouse) (UniProt Q03526); test: GST pull-down (FIG. 3g)
[3] = target: FLAG-tagged Itk KD co-expressed with Lck and treated with alkaline phosphatase (mouse) (UniProt Q03526); test: GST pull-down (FIG. 3g)
[4] = target: FLAG-tagged Itk KD co-expressed with Lck and treated with alkaline phosphatase (mouse) (UniProt Q03526); test: GST pull-down on glutathione beads, anti-FLAG blot (FIG. 3g, lane 6)

Measured: binding

B1: GST-PLCγ1 C-terminal SH2 domain (GST-PLCγ1 SH2C) (protein, rat, UniProt P10686 659-756, looked up, not shown: a dimerising Fc or GST)
chain: QTNAHESKEWYHASLTRAQAEHMLMRVPRDGAFLVRKRNEPNSYAISFRAEGKIKHCRVQQEGQTVMLGNSEFDSLVDLISYYEKHPLYRKMKLRYPI
binds: all assays above
